Results: patent publication US20160130579A1
Results are given in words; binding and its absence hold for the method and conditions named. Some binding calls cover weakened binding; strength is not graded here.

T1: prohibitin (UniProt P67778)
T1 sequence (looked up): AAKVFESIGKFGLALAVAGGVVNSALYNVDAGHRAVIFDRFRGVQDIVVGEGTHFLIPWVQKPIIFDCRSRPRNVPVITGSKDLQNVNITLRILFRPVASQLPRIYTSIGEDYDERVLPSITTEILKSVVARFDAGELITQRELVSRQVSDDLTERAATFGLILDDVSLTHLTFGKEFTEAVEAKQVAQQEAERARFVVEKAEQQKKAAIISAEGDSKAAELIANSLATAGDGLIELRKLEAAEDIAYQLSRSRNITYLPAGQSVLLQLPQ


Assays:
prohibitin [1] = target: T1, prohibitin; assay: competition assay on 3T3-L1 preadipocytes and mature adipocytes, confocal microscopy
prohibitin [2] = target: T1, prohibitin; assay: immunoprecipitation
prohibitin [3] = target: T1, prohibitin; assay: staining of 3T3-L1 preadipocytes and mature adipocytes with RhoB-ATS

binding (prohibitin [1]) | binding (prohibitin [2]) | binding (prohibitin [3]) | Binder
binds | binds |  | CKGGRAKDC [adipocyte-targeting sequence (ATS) peptide, free]
 |  | binds | CKGGRAKDC (Rhodamine B conjugated (position not given)) [Rhodamine B conjugated ATS peptide]
